From PMC7736804
No constants are given. Whether binding was seen depends on the method and setting. Binding seen in cells or lysates may run through a third protein.

Protein sequences, listed by entry. Tags and fused reporters are not part of them.
UniProt P06748: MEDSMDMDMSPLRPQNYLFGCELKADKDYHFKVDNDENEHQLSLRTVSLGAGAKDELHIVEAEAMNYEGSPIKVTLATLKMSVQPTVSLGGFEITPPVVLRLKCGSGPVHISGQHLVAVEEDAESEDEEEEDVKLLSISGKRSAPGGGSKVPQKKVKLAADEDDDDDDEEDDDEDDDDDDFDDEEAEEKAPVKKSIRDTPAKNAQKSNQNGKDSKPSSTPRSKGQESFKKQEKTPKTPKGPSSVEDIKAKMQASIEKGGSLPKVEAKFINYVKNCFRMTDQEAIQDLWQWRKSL

Experiments:
Assay in all cases: co-IP; Flag-tagged BCCIP proteins, truncations or AD mutants transiently expressed in HEK293 cells; lysates precipitated with M2 anti-Flag beads; co-precipitated endogenous proteins detected by western blots
[1] = biological target: Flag-tagged human BCCIPα (human) (UniProt Q9P287)
[2] = biological target: Flag-tagged human BCCIPβ (human) (UniProt Q9P287)
[3] = biological target: Flag-tagged mouse BCCIP (mouse) (UniProt Q9CWI3)

binding [1]: no binding
binding [2]: no binding
binding [3]: no binding
Substance: B23 (endogenous, HEK293) (from UniProt P06748 1-294)
